No constants are given. Whether binding was seen depends on the method and setting. Binding can be weak; no strength is given.
Target: Canavalia rosea plasma membrane intrinsic protein CrPIP2;3 (Canavalia rosea)
Test: two-hybrid; pGBKT7 (BD) bait and pGADT7 (AD) prey plasmids co-transformed in pairs into yeast AH109; plated on SD/-Leu-Trp and SD/-Leu-Trp-His; spots supplemented with 40 ug/mL X-alpha-Gal; repeated three times

Substance: Canavalia rosea plasma membrane intrinsic protein CrPIP1;5 (from UniProt A0A8F4X4X8)
- binding: binds
